# Library screen at single concentrations

Chains of the proteins cited; added tags and fusions are not shown.
UniProt P9WFT3, whole entry: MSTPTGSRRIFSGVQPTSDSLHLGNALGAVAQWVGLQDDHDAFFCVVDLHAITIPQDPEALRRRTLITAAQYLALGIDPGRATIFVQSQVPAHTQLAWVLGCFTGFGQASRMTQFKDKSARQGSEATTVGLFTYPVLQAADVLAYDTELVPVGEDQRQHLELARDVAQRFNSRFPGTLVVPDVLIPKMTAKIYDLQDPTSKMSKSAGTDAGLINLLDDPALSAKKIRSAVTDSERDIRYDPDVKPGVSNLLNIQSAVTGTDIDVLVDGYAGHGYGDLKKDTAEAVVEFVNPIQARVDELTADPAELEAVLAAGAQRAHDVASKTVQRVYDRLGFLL

Source: ChEMBL document CHEMBL3988442, “University of Dundee, Small-Polar-MMV Screening Library” (2021).

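Enzyme assay of tryptophanyl-tRNA synthetase; the read-out is not stated. Target: Tryptophan-tRNA ligase, Mycobacterium tuberculosis (UniProt P9WFT3). Compounds at 10 µM. Direction is not recorded; retested compounds ran higher, which suggests that high means inhibition. Size under these conditions: about 65,000 compounds, about 64 of them at 50% or above in at least one test.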

Each number is a percent effect as filed. The record does not define 0% and 100%; most values in the screen are far below 50% and negative numbers occur (in some assays of this library far below -100). This is an unselected part of the compounds tested.

| # | SMILES | Percent Effect |
|---|---|---|
| 1 | `Cc1cc(C)cc(NC(=O)CC2CN(Cc3ccccc3)CCO2)c1` (stereo not drawn) | -0.9684% |
| 2 | `Cc1csc(CNC(=O)N(C)Cc2ccncc2)n1` | 0.09676% |
| 3 | `Cn1cc(CN2CCc3nc4ccccc4c(=O)n3CC2)cn1` | -5.405% |
| 4 | `COc1ccc(OC)c(C(C)NC(=O)c2nn(C)c(C)c2Br)c1` (stereo not drawn) | 2.417% |
| 5 | `Cc1nn(C)c(C)c1NC(=O)CNC(c1ccccc1)C1CCCC1` (stereo not drawn) | -3.901% |
| 6 | `CN(CCCc1cc(-c2ccc(F)cc2)n(C)n1)CC(=O)NC(N)=O` | 2.136% |
| 7 | `CC(C(=O)N(C)Cc1nnc2n1CCC2)S(C)(=O)=O` (stereo not drawn) | 2.321% |
| 8 | `COc1cccc(N2CCC(N3C[C@@H](NC(C)=O)[C@H](C(C)C)C3)CC2)c1` | -4.47% |
| 9 | `C/C=C(\C)CN1C[C@H](c2cccc(OC)c2)[C@@H](N)C1` | -5.027% |
| 10 | `CN(C)c1nc2n(c(=O)n1)CCN2C(=O)Nc1ccc(Cl)c(Cl)c1` | -1.117% |
| 11 | `COCCO[C@H]1CCN(C(=O)c2ccco2)[C@H]1Cc1cnn(C)c1` | 6.684% |
| 12 | `CNC(=O)NC(=O)COc1c(C(C)=O)ccc(Cl)c1Cl` | -0.3112% |
| 13 | `O=C(c1coc(-c2ccccc2)n1)N1CCS(=O)(=O)CC1` | -3.043% |
| 14 | `Cn1cc(C(=O)N(Cc2ccco2)Cc2cccs2)ccc1=O` | 0.4968% |
| 15 | `CC[S+]([O-])CCc1nc(CC(C)C)nn1-c1ccc2c(c1)OCCO2` (stereo not drawn) | 12.51% |
| 16 | `Cc1ccc2c(c1)C1(CCNCC1)CC2N1CCOCC1` (stereo not drawn) | -6% |
| 17 | `CC(=O)N1C[C@@H](F)[C@@H](OCc2nc3ccccc3o2)C1` | -3.263% |
| 18 | `OCC1(NCc2cnc(-c3cccs3)s2)CCOCC1` | -1.364% |
| 19 | `O=C(O)c1cccc(S(=O)(=O)N2CCOc3ccccc32)c1` | -0.5348% |
| 20 | `c1ccc(-c2nc(CN3CCCC(Cn4cncn4)C3)cs2)cc1` (stereo not drawn) | -5.65% |
| 21 | `COc1ccc2cnn(CC(=O)NC3CCCC3)c(=O)c2c1OC` | -4.718% |
| 22 | `O=C(c1cscn1)N1CCCC12CCCN(S(=O)(=O)c1ccccc1)C2` (stereo not drawn) | 0.239% |
| 23 | `NC1CCc2nc(-c3cccnc3)nc(Nc3ccc(F)cc3)c2C1` (stereo not drawn) | 0.718% |
| 24 | `CN(C)C(=O)NC[C@@H]1OC[C@H]2CN(Cc3cccc(F)c3)CC[C@H]21` | 0.9916% |
| 25 | `Cc1cnc(C(=O)N(C)Cc2nc(-c3ccccn3)no2)cn1` | 7.448% |
| 26 | `COCc1ncn2c1CN(C(=O)C1CC=CC1)CC2` | 3.521% |
| 27 | `CS(=O)(=O)N1CCN(c2ccnc(N3CCCCC3)n2)CC1` | -2.972% |
| 28 | `Cc1ccc(-n2nnnc2SCN2CCCCC2=O)cc1C` | -6.133% |
| 29 | `O=C(NCC1CC1)C1CCC2(CCNCC2)C1` (stereo not drawn) | -4.285% |
| 30 | `COc1ccc(C(C)NCc2ccnn2C)cc1Cn1cccn1` (stereo not drawn) | -3.249% |
| 31 | `Cn1ncc2c1C(COCC1CC1)CN(Cc1nccs1)C2` (stereo not drawn) | -2.315% |
| 32 | `O=C(c1cnc(O)cn1)N1CCC(CN2CCOCC2)CC1` | 1.732% |
| 33 | `CC(C)c1n[nH]c(C2CN(Cc3ncc[nH]3)CCO2)n1` (stereo not drawn) | 1.286% |
| 34 | `CCOCc1ncn2c1CN(S(=O)(=O)c1ccc(OC)cc1)CC2` | -1.365% |
| 35 | `N#Cc1ccc(CN2CCCN(C(=O)CCn3cncn3)CC2)cc1` | 8.344% |
| 36 | `CC(C)n1cnnc1CNC(=O)c1cnc2ccccc2n1` | -2.167% |
| 37 | `CCc1nnc2n1CC(CNCC1CCCC1)CC2` (stereo not drawn) | -2.469% |
| 38 | `CN(Cc1ccc2c(c1)OCCO2)C(=O)Cn1ccccc1=O` | 0.5912% |
| 39 | `CCOc1ccccc1C(C(=O)O)N(C)Cc1nc(C)c[nH]1` (stereo not drawn) | -0.1514% |
| 40 | `CC(C)C(Sc1nnc(NC2CC2)s1)C(=O)NCc1cccnc1` (stereo not drawn) | 4.498% |
| 41 | `Cc1cccc(CN2CCc3c(COCC(=O)N(C)C)nn(C)c3C2)n1` | -4.503% |
| 42 | `NC(=O)CNC1(c2ccc(Br)cc2)CCOCC1` | -7.162% |
| 43 | `N#Cc1cnn(CCN2CCOC(CNc3cccnn3)C2)c1` (stereo not drawn) | -4.108% |
| 44 | `c1ccc(-n2nc(CNC3CCc4ncnn4C3)c3c2CCC3)cc1` (stereo not drawn) | 21.79% |
| 45 | `NC(=O)C1(Cc2ccccc2-c2ccccc2)CCCN(CC2CC2)C1` (stereo not drawn) | 0.8811% |
| 46 | `Cc1cccc(C(=O)N2CCCC(c3noc(C)n3)C2)n1` (stereo not drawn) | 4.932% |
| 47 | `O=C1C[C@H]2[C@@H](CCN2Cc2ccccn2)N1Cc1cccnc1` | -4.215% |
| 48 | `CS(=O)(=O)c1ccc(OCCNCc2ccc(F)cc2)cc1` | -0.1347% |
| 49 | `CCOC(=O)c1ccc(CNC(=O)c2ccc(C)nc2)o1` | -5.705% |
| 50 | `Brc1csc(CNCc2nnc3n2CCC3)c1` | -2.886% |
| 51 | `CCCc1cc(N2CCC(NCC3(O)CCCCC3)CC2)nc(C)n1` | -4.197% |
| 52 | `O=C(c1cccc(OC2CCCC2)c1)N1CCCC(n2cncn2)C1` (stereo not drawn) | 1.017% |
| 53 | `CC(C)(C)n1ncc2c1NC(=O)CC2c1cccc(F)c1` (stereo not drawn) | -1.483% |
| 54 | `O=C(NCC1CC1)C1=NOC2(CCN(Cc3ccc(Cl)c(F)c3)C2)C1` (stereo not drawn) | -1.449% |
| 55 | `Cc1ccncc1C(=O)N1CC[C@@]2(O)CCN(C3CCCCC3)C[C@H]2C1` | 1.444% |
| 56 | `CN1CCCC(c2nccnc2-c2cccc(Cl)c2)C1` (stereo not drawn) | -4.617% |
| 57 | `O=C(NCc1cccnc1N1CCCCC1)c1ccc2cc[nH]c2c1` | 7.498% |
| 58 | `CCOC(=O)N1CCC2(CC1)N=C(CCC(C)C)NC2=O` | 3.561% |
| 59 | `Cc1nnc(N2CC[C@H]3C[C@@H](C(=O)N4CCCC4)O[C@H]3C2)s1` | 8.288% |
| 60 | `O=C([C@H]1C[C@H]2OCC[C@H]2N(Cc2ccco2)C1)N1CCCO1` | -1.58% |
| 61 | `COc1cccc(CNCCc2cc(F)cc3c2OCOC3)c1` | 8.531% |
| 62 | `CN(c1ccc(Cl)c(C(=O)NCCCN2CCOCC2)c1)S(C)(=O)=O` | -2.905% |
| 63 | `Cc1nn(CN(CC(C)C)C2CC2)c(=O)c2noc(C)c12` | 0.5093% |
| 64 | `Cc1ccc(C2NC(=O)c3cc(C(C)C)sc3N2)cc1` (stereo not drawn) | 1.152% |
| 65 | `O=C(C1CCCC1)N1C[C@H]2CNC[C@H]2C1` | -0.5814% |
| 66 | `COC(=O)c1cc(CN2CCC(c3noc(C)n3)CC2)c(C)s1` | 1.161% |
| 67 | `CC(OCC1CC1)C(=O)N1CCCN(Cc2nccn2C(C)C)CC1` (stereo not drawn) | -3.45% |
| 68 | `CC(C)c1cc(=O)[nH]c(-c2ccccc2CN2CCC(C)(C)C2)n1` | 2.773% |
| 69 | `Cc1nc[nH]c1CN1CCC2(CC1)CC(Nc1ncccn1)CO2` (stereo not drawn) | 2.057% |
| 70 | `O=C(c1ccc(SC(F)F)cc1)N1CCOCC1c1ncon1` (stereo not drawn) | -4.871% |
| 71 | `CC(NCCCN1CCCC1=O)c1ccc(F)cc1N(C)C` (stereo not drawn) | 1.387% |
| 72 | `O=C(NCCNC(=O)c1ccc(Cl)cc1)NCCn1cccc1` | 0.311% |
| 73 | `Cc1nnc2n1CCN(CCOc1ccc(C(C)(C)C)cc1)C2` | -9.457% |
| 74 | `COc1ccc(OC)c(C(C)NC(=O)Nc2nnc(C)s2)c1` (stereo not drawn) | -0.08796% |
| 75 | `COc1ncc(NC(=O)c2ccco2)c(OC)n1` | 14.36% |
| 76 | `COCc1noc(CN2C[C@H](NS(C)(=O)=O)[C@@H](C3CC3)C2)n1` | 1.417% |
| 77 | `O=C(C1CC1)N1CC[C@H](c2nnc(-c3ccccc3F)o2)C1` | -0.6777% |
| 78 | `CC(C)CC(=O)N1CCc2nc(N3CCOCC3)nc(NC(C)C)c2C1` | -0.5286% |
| 79 | `CCC(C)NC(=O)c1ccc(NC(=O)CCCn2cncn2)c(C)c1` (stereo not drawn) | -1.026% |
| 80 | `CCCn1cc(C(=O)NC(CC(=O)O)c2ccco2)c(C)n1` (stereo not drawn) | -1.878% |
| 81 | `CCCNC(=O)C(C)NC(=O)Nc1ccccc1SC(F)F` (stereo not drawn) | 2.016% |
| 82 | `CCn1nc(CC(C)C)cc1C(=O)NCCS(=O)(=O)N(C)C` | -1.027% |
| 83 | `CCOCC(=O)N1C[C@@H](O)[C@H](N2CCN(c3ccccc3)CC2)C1` | -5.937% |